Test results from the M2OR odorant receptor database.
The list shows a part of the results, in another mix than the full data. The calls were merged from several studies; some rest on single wells. The list shows a part of the results.

Key:
Conditions in all cases: stereoisomer not certain
UniProt Q8VGT4 = molecular target: T1, UniProt Q8VGT4
T1 sequence (whole entry): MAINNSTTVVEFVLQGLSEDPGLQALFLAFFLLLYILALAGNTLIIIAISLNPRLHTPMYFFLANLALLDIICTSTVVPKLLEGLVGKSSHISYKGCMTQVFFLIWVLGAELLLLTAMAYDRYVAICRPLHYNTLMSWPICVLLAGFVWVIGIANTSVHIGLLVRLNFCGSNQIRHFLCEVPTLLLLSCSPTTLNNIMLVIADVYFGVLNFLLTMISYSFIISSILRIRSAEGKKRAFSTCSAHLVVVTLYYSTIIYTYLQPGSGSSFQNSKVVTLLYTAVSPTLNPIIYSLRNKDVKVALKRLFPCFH
Method in brief: (§1)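 Each receptor–molecule pair is labelled responsive or non-responsive (inactive) according to whether the original authors judged the measured signal statistically different from baseline. The data were taken from the main text and supplementary material of published papers and checked for typos and inconsistencies. Assay methods differed by source, with transient luciferase assays in mammalian cell lines being common.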

UniProt Q8VGU3 = molecular target: T2, UniProt Q8VGU3
T2 sequence (whole entry): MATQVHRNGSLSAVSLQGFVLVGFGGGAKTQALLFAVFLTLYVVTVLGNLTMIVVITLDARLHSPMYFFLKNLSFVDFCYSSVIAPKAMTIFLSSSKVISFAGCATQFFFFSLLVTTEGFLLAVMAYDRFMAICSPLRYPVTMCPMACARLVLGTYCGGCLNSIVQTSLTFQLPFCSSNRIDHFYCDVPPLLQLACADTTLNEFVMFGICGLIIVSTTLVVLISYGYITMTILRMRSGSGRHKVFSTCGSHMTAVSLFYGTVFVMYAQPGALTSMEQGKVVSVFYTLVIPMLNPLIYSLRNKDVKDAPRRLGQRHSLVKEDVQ
Method in brief: as §1

UniProt Q8VGV1 = molecular target: T3, UniProt Q8VGV1
T3 sequence (whole entry): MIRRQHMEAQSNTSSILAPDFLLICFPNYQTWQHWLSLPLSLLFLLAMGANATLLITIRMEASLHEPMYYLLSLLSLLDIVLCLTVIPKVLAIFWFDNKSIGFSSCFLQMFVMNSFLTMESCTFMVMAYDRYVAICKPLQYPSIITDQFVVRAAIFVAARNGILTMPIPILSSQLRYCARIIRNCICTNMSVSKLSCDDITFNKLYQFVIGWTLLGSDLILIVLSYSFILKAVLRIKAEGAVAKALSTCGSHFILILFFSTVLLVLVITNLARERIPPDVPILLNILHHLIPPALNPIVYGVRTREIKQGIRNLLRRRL
Method in brief: as §1

UniProt Q8VGV7 = molecular target: T4, UniProt Q8VGV7
T4 sequence (whole entry): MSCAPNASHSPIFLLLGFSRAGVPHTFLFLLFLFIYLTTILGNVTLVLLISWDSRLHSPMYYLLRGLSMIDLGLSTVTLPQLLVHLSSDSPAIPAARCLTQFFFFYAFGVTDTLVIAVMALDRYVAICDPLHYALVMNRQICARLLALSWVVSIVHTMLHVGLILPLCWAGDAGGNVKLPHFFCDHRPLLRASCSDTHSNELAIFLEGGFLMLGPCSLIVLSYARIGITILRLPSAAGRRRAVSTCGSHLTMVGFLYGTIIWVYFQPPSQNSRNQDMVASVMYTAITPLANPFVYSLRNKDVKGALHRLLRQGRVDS
Method in brief: as §1

UniProt Q8VGX3 = molecular target: T5, UniProt Q8VGX3
T5 sequence (whole entry): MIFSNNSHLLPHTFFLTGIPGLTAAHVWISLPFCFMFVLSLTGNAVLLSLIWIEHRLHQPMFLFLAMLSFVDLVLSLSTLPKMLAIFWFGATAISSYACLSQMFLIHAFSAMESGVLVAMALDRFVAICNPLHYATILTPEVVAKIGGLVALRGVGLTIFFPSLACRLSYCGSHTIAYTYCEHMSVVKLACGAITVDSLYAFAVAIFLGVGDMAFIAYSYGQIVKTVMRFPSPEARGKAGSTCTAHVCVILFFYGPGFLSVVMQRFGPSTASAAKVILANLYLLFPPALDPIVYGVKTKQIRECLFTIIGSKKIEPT
Method in brief: as §1

UniProt Q8VGX5 = molecular target: T6, UniProt Q8VGX5
T6 sequence (whole entry): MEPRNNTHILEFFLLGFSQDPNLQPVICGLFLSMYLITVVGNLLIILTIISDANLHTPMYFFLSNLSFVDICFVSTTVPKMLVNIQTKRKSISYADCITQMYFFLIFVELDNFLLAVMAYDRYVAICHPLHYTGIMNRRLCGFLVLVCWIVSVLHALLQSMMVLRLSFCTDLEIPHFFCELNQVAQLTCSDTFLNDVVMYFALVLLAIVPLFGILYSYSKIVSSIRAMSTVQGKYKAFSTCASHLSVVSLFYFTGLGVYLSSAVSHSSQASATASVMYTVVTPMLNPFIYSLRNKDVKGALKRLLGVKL
Method in brief: as §1

UniProt Q8VGX8 = molecular target: T7, UniProt Q8VGX8
T7 sequence (whole entry): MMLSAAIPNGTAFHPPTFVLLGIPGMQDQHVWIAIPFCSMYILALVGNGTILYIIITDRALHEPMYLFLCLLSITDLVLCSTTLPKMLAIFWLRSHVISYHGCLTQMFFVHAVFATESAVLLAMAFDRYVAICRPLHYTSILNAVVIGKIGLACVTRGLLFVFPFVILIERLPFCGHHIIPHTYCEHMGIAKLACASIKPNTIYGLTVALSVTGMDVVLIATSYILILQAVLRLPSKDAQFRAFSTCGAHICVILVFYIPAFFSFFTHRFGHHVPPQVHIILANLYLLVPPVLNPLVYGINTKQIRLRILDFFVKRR
Method in brief: as §1

UniProt Q8VGY6 = molecular target: T8, UniProt Q8VGY6
T8 sequence (whole entry): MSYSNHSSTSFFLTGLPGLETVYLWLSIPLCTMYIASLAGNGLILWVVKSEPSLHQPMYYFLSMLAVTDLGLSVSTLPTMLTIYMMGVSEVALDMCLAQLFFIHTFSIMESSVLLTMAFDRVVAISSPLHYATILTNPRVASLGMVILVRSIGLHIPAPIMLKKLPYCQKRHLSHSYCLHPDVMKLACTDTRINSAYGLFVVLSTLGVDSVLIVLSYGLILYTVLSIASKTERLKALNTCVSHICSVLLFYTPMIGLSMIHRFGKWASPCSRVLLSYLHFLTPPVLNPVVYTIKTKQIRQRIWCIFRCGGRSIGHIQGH
Method in brief: as §1

UniProt Q8VGZ2 = molecular target: T9, UniProt Q8VGZ2
T9 sequence (whole entry): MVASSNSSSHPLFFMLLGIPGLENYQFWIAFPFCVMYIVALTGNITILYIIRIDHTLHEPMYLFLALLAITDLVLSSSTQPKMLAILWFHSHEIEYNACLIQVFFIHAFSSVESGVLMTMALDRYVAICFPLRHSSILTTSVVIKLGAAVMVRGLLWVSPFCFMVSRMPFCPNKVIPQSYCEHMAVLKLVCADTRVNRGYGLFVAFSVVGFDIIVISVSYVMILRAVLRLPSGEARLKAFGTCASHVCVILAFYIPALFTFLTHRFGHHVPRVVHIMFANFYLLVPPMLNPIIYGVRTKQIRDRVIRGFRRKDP
Method in brief: as §1

UniProt Q8VGZ7 = molecular target: T10, UniProt Q8VGZ7
T10 sequence (whole entry): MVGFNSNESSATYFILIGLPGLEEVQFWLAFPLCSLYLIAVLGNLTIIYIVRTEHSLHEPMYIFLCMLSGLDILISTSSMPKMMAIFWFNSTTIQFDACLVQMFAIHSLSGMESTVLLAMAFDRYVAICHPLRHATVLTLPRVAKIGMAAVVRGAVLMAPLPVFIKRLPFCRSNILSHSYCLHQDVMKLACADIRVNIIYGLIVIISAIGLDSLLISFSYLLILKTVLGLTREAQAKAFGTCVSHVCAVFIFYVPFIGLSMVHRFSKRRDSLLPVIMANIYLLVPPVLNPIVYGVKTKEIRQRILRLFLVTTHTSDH
Method in brief: as §1

UniProt Q8VH10 = molecular target: T11, UniProt Q8VH10
T11 sequence (whole entry): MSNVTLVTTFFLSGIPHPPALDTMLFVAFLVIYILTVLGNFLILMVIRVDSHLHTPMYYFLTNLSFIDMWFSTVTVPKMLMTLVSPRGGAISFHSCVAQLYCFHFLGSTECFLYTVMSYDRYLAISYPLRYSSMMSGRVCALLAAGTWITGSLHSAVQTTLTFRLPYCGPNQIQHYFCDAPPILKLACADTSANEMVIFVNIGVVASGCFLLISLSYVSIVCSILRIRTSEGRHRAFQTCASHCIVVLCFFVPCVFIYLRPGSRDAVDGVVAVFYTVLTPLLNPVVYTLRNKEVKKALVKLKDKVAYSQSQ
Method in brief: as §1

UniProt Q8VH16 = molecular target: T12, UniProt Q8VH16
T12 sequence (whole entry): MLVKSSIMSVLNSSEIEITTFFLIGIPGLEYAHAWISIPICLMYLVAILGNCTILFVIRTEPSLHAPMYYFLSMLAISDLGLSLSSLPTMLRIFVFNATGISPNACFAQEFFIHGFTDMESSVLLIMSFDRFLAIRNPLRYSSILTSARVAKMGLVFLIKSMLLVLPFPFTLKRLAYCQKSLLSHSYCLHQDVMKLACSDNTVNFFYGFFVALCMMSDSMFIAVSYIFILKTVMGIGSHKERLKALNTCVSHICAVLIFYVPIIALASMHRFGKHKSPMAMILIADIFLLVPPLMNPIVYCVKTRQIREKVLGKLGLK
Method in brief: as §1

UniProt Q8VH20 = molecular target: T13, UniProt Q8VH20
T13 sequence (whole entry): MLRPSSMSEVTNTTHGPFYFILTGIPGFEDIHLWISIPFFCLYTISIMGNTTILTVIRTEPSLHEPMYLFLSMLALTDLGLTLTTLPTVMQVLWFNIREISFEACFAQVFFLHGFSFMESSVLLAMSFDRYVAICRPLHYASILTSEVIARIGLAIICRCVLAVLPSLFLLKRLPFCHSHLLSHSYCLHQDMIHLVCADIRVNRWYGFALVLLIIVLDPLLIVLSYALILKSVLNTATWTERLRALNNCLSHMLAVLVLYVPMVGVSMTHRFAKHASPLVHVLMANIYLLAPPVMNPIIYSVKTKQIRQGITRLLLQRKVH
Method in brief: as §1

UniProt Q8VH21 = molecular target: T14, UniProt Q8VH21
T14 sequence (whole entry): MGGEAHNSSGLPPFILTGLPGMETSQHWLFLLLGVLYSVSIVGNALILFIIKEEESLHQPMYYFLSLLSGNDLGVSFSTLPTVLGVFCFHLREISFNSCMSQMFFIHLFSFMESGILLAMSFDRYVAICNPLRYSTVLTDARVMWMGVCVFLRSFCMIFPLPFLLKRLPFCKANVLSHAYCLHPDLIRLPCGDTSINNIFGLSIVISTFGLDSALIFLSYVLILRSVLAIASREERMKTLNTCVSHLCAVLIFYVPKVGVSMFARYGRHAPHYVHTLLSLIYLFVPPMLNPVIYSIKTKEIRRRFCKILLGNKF
Method in brief: as §1

UniProt Q920P1 = molecular target: T15, UniProt Q920P1
T15 sequence (whole entry): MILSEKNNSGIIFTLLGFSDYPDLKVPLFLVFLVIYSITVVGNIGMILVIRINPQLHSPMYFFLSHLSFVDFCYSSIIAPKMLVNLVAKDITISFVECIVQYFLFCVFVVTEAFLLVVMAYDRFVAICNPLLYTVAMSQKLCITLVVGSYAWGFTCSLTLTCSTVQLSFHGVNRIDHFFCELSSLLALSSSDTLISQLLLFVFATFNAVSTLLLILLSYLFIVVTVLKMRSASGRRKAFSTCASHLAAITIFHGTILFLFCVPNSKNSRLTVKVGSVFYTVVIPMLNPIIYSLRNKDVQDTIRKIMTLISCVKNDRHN
Method in brief: as §1

UniProt Q920P2 = molecular target: T16, UniProt Q920P2
T16 sequence (whole entry): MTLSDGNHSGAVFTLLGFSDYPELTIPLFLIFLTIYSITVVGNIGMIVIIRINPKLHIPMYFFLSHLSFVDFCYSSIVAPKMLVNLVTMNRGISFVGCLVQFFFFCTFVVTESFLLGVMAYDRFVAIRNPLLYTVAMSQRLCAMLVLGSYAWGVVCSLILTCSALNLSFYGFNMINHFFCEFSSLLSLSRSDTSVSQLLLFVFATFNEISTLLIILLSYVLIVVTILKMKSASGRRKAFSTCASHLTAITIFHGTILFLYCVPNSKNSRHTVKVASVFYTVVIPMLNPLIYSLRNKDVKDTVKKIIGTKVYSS
Method in brief: as §1

UniProt Q924H8 = molecular target: T17, UniProt Q924H8
T17 sequence (whole entry): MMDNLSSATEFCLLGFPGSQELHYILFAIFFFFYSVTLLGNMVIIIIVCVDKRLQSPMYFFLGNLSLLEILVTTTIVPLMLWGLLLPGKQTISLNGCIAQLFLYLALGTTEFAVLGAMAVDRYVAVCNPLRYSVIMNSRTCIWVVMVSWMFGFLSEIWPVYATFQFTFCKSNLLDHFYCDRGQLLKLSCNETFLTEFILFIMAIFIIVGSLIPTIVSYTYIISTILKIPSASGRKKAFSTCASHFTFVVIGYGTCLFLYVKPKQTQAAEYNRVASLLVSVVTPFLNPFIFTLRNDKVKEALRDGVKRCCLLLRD
Method in brief: as §1
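Also: active if original authors judged signal statistically different from baseline.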

Structure (SMILES) | odorant receptor agonist call (UniProt Q8VGT4) | odorant receptor agonist call (UniProt Q8VGU3) | odorant receptor agonist call (UniProt Q8VGV1) | odorant receptor agonist call (UniProt Q8VGV7) | odorant receptor agonist call (UniProt Q8VGX3) | odorant receptor agonist call (UniProt Q8VGX5) | odorant receptor agonist call (UniProt Q8VGX8) | odorant receptor agonist call (UniProt Q8VGY6) | odorant receptor agonist call (UniProt Q8VGZ2) | odorant receptor agonist call (UniProt Q8VGZ7) | odorant receptor agonist call (UniProt Q8VH10) | odorant receptor agonist call (UniProt Q8VH16) | odorant receptor agonist call (UniProt Q8VH20) | odorant receptor agonist call (UniProt Q8VH21) | odorant receptor agonist call (UniProt Q920P1) | odorant receptor agonist call (UniProt Q920P2) | odorant receptor agonist call (UniProt Q924H8)
CC(C)(O)CCCC1=CCC(C=O)CC1 (centres undefined) | inactive | inactive | inactive | inactive | inactive | inactive | inactive | inactive | inactive | inactive | inactive | inactive | inactive | inactive | inactive | inactive | active
CCCCO | – | inactive | – | inactive | inactive | inactive | – | – | inactive | inactive | – | inactive | inactive | inactive | inactive | inactive | inactive
C=CC(C)(O)CCC=C(C)C (centres undefined) | – | inactive | – | inactive | inactive | inactive | – | – | inactive | inactive | – | inactive | inactive | inactive | – | – | inactive
CC(=O)OC1CC2CCC1(C)C2(C)C (centres undefined) | – | inactive | – | inactive | inactive | inactive | – | – | inactive | inactive | – | inactive | inactive | inactive | – | – | inactive
